Measurements reported in article PMC10753557, “Design and Evaluation of Synthesized Pyrrole Derivatives as Dual COX-1 and COX-2 Inhibitors Using FB-QSAR Approach” (ACS Omega, 2023).
The match of structure and compound is tentative.

Protein sequences, listed by entry. Tags and fused reporters are not part of them. Residues count along the entry.
UniProt P35354, 18-604 limits assumed: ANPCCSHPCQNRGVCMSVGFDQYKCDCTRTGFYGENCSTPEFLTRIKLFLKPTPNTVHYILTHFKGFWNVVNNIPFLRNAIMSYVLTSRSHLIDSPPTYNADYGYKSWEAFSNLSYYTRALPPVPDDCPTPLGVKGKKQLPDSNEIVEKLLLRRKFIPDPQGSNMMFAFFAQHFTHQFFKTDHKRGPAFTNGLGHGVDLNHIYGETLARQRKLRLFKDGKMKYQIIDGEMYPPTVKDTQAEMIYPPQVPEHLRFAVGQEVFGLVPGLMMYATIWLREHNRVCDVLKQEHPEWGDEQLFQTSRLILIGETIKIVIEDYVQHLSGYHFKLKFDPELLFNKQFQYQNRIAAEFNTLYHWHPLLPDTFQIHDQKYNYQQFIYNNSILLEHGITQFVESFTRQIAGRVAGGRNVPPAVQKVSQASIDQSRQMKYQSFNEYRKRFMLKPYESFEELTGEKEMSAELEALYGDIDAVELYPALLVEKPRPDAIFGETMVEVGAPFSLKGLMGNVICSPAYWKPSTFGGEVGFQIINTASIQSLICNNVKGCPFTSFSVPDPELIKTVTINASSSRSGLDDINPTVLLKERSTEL
UniProt P05979, 25-600 limits assumed: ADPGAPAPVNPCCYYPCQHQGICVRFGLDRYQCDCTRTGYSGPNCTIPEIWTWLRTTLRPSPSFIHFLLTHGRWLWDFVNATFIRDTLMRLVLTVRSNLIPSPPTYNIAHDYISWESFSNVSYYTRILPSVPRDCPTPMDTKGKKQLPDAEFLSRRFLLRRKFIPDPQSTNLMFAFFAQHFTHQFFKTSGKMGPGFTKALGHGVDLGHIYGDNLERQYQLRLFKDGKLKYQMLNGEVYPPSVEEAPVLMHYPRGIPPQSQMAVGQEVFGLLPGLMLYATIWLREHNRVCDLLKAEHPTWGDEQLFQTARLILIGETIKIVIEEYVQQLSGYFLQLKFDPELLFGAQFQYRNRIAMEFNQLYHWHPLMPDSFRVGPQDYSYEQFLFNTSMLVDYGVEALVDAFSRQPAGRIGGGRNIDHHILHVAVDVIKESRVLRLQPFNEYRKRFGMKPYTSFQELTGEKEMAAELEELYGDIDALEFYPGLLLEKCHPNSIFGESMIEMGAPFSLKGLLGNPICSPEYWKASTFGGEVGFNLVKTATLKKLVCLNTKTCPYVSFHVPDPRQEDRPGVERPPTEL

How the values were obtained:
COX-2 = COX-2 (Homo sapiens, UniProt P35354); experiment: COX-2 fluorometric inhibitor screening kit (BioVision); format: biochemical
COX-1 = COX-1 (Ovis aries, UniProt P05979); experiment: COX-1 fluorometric inhibitor screening kit (BioVision); format: biochemical; conditions: for COX-1% Inhibition 1 μM: 1 μM compound; for COX-1% Inhibition 1 μM / COX-1% Inhibition 10 μM: mean ± SD, quadruplicate; for COX-1% Inhibition 10 μM: 10 μM compound; for IC50: read-out: COX-1 IC50, fluorometric kit

| SMILES | COX-2% Inhibition 1 μM (COX-2) | COX-2% Inhibition 10 μM (COX-2) | experimental activity on COX-2 (pIC50) (COX-2) | IC50 (COX-2; read-out: COX-2 IC50) | COX-1% Inhibition 1 μM (COX-1) | COX-1% Inhibition 10 μM (COX-1) | IC50 (COX-1) |
| --- | --- | --- | --- | --- | --- | --- | --- |
| CCOC(=O)c1cc(-c2cccc(Cl)c2)n(CC(=O)O)c1C | 82.602 ± 2.061% | 91.579 ± 2.458% | 6.8446 | 143 nM | 34.587 ± 0.836% | 41.326 ± 1.057% | > 10000 nM |
| CCOC(=O)c1cc(-c2ccc(Cl)c(Cl)c2)n(CC(=O)O)c1C | – | – | – | – | 46.378 ± 1.501% | 86.461 ± 1.716% | > 1000 nM |
